For 11 targets, log2 fold change results are on record in the supplement of paper PMC12819154, “High-throughput peptide-centric local stability assay extends protein–ligand identification to membrane proteins, tissues and bacteria” (Nature Structural & Molecular Biology, 2025).

Chains of the proteins cited; added tags and fusions are not shown. Lines headed by an entry give the natural chain unless they say otherwise; changes in a name come on top.
UniProt O75323: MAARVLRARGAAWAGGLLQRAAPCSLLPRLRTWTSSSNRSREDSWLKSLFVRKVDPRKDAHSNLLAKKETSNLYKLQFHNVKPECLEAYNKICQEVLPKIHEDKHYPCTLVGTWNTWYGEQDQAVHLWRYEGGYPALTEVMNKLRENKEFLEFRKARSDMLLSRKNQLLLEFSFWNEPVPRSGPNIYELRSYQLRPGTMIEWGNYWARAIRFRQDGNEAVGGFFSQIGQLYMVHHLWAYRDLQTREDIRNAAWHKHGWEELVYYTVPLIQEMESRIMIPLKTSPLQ
UniProt O75167: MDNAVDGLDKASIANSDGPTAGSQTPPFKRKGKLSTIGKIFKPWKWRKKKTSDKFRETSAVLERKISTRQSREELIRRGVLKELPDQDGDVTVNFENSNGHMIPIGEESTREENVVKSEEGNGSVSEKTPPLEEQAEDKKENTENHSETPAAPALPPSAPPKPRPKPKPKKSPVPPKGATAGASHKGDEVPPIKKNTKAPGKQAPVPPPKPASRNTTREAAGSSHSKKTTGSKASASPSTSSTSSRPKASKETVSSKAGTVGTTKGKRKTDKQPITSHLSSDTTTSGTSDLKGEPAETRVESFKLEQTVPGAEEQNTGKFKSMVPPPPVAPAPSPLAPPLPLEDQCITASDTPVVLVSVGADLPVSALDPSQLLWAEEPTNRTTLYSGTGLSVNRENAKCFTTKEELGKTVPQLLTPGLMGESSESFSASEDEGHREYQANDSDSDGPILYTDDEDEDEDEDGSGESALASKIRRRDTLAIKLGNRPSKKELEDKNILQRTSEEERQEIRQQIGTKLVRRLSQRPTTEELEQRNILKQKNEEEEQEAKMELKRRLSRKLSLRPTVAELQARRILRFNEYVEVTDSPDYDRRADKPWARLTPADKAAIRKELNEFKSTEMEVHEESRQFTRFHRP
UniProt O43747: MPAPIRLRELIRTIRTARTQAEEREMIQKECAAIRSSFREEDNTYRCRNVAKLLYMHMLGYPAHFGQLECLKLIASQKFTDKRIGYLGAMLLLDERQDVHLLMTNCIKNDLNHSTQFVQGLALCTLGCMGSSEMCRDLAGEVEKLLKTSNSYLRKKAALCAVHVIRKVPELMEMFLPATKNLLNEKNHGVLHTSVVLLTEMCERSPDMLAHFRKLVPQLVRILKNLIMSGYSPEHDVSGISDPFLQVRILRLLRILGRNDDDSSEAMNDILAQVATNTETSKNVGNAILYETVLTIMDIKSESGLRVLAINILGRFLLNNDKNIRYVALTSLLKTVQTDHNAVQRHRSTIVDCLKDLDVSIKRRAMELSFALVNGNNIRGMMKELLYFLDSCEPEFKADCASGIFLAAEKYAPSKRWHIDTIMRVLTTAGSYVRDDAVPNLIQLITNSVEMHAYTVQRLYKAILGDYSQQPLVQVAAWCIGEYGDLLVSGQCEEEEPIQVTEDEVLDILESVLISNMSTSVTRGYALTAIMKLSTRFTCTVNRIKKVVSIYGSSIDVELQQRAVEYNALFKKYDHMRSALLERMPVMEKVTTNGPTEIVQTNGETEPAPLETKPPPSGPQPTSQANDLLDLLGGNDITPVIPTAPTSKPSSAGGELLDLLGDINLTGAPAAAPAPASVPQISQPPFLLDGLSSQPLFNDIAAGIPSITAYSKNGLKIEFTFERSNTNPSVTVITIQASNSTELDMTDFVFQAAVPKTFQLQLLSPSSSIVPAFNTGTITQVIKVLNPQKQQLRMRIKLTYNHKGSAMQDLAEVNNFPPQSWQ
UniProt O43930: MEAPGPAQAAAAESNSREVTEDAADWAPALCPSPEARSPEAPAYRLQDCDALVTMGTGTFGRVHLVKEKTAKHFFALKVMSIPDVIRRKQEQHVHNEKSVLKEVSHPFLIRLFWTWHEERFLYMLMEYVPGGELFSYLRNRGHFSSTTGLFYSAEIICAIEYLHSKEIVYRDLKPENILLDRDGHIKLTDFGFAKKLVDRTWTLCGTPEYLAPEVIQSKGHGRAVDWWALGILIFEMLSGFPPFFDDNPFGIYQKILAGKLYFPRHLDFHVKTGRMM
UniProt O43592: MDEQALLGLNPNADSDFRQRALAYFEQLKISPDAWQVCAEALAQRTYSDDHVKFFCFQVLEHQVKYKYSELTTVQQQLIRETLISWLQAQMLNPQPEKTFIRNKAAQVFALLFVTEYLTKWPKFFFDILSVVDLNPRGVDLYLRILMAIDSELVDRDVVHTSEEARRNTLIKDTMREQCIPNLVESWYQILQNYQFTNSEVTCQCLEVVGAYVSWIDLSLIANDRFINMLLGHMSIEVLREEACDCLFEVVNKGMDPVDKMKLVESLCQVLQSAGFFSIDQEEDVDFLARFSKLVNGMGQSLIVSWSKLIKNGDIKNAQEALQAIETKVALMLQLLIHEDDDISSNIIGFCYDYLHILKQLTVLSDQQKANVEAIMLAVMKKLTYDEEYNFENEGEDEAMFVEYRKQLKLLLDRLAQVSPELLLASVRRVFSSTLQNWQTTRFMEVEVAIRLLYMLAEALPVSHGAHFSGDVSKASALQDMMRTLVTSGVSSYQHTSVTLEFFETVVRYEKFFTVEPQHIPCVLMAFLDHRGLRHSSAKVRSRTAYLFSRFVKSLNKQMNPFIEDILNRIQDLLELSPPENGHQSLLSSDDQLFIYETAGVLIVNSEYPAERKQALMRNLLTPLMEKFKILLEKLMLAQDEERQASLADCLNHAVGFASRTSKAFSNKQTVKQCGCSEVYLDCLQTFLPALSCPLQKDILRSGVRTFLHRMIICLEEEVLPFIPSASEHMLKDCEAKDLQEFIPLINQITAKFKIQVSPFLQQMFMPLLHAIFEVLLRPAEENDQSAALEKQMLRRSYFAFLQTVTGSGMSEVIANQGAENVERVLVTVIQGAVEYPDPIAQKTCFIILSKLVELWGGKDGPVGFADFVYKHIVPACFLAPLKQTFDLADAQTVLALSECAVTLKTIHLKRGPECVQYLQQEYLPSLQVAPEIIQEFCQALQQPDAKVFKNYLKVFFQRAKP
UniProt O43303: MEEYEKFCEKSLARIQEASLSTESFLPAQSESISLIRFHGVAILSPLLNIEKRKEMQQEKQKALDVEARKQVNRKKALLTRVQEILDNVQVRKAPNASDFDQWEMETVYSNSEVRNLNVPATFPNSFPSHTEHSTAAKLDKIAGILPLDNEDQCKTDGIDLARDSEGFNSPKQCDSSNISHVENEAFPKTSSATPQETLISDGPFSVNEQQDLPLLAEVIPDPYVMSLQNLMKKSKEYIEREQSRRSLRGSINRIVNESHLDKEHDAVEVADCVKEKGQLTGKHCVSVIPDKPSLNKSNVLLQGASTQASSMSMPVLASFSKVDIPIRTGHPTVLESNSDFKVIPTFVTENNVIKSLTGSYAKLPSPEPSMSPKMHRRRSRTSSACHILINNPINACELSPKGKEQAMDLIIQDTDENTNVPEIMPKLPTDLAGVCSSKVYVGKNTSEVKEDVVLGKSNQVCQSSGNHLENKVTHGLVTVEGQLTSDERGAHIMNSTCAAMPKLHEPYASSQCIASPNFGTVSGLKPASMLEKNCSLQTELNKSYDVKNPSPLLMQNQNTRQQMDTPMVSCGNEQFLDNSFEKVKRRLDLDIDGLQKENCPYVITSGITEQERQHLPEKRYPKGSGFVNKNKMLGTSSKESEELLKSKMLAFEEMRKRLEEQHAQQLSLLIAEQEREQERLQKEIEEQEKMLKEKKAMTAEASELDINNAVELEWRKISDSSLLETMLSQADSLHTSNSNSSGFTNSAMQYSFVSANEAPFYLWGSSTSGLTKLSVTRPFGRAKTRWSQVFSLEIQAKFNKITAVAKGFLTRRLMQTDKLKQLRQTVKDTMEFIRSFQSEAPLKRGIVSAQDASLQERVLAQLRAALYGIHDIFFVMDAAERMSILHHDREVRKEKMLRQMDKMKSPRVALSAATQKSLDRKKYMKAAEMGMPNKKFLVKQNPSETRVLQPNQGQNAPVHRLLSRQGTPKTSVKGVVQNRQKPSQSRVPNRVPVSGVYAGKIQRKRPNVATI
UniProt O43719: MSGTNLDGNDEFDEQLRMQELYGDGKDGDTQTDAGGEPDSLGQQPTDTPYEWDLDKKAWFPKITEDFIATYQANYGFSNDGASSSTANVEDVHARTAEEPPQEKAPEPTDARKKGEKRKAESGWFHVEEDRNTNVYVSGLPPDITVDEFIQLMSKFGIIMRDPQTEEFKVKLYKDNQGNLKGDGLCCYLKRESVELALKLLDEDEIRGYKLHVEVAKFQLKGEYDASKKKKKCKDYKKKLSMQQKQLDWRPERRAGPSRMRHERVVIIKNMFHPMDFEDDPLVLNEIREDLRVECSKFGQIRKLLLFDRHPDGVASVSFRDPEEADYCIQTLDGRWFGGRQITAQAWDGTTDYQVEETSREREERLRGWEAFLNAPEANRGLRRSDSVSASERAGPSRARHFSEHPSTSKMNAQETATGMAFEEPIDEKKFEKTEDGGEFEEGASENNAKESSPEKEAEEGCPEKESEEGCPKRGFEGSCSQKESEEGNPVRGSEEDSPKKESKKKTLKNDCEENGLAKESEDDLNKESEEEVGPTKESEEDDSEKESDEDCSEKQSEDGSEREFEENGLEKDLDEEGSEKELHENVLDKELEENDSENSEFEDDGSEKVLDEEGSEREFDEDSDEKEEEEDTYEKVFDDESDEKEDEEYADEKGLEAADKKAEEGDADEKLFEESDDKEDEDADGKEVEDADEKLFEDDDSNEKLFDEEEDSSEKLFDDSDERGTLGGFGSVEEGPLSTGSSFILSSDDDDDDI
UniProt O43488: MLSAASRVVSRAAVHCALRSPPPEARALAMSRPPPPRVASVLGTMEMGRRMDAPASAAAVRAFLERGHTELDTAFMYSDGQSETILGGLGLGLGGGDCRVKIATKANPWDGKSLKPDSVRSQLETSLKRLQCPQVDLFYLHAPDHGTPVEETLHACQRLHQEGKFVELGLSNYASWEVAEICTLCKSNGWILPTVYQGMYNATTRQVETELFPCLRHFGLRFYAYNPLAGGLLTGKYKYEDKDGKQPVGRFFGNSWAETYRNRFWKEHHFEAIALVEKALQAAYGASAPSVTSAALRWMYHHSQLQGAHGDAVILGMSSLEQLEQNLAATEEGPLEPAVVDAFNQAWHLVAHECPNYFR
UniProt O75175, whole entry: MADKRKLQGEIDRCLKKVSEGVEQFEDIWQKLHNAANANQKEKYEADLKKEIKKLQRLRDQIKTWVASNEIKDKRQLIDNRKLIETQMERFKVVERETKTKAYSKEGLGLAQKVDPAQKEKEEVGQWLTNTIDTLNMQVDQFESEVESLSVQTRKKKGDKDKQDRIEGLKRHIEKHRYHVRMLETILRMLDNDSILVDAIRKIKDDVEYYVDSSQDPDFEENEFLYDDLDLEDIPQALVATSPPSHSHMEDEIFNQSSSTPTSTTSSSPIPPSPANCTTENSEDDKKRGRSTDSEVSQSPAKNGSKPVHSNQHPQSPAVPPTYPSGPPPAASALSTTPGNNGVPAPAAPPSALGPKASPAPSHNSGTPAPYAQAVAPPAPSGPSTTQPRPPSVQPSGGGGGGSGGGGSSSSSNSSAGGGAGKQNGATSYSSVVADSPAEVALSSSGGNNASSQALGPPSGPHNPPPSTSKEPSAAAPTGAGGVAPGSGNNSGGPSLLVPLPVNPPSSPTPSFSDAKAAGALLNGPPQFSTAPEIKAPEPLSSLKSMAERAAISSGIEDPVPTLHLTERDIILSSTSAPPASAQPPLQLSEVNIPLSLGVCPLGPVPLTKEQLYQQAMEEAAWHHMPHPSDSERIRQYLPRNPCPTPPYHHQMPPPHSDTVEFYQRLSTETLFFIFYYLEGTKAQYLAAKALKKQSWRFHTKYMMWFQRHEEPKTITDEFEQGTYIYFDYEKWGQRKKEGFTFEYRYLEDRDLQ
UniProt O60828: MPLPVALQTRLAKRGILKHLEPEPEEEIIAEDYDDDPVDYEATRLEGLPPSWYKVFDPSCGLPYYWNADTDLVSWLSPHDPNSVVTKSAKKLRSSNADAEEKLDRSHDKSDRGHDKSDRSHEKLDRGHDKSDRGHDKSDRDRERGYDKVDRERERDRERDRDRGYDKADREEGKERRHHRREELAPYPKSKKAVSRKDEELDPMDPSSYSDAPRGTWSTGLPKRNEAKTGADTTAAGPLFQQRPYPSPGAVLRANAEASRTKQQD

This is one part of the list. Most entries show no effect beyond the scatter of the controls.

Compound in the assay: Cc1nc(Nc2ncc(C(=O)Nc3c(C)cccc3Cl)s2)cc(N2CCN(CCO)CC2)n1 [dasatinib]
The assay can be described thus: log2 fold change of tryptic peptide abundance, ligand vs vehicle (limited proteolysis) (log2 ratio); higher = more trypsin-susceptible (destabilized). Particulars: ligand concentration: 5 uM; sample: K562 cleared lysate.
As for “UniProt O75323 (peptide sequence: SDMLLSRK, peptide start residue: 158)”, the log2 fold change stood at 0.884.
The figure for “PHACTR2 (peptide sequence: KELNEFK, peptide start residue: 677) (UniProt O75167)” is 0.377.
The figure for “SLC43A1 (peptide sequence: VTGDLFYTHVTTMGQR, peptide start residue: 245) (UniProt O75387)” is -0.333; for “AP1G1 (peptide sequence: IEFTFER, peptide start residue: 717) (UniProt O43747)” it is -0.398; for “UniProt O43930 (peptide sequence: VMSIPDVIR, peptide start residue: 79)” it is 0.0855.
As for “XPOT (peptide sequence: TYSDDHVK, peptide start residue: 46) (UniProt O43592)”, the log2 fold change is -0.392.
With “UniProt O43303 (peptide sequence: GQLTGKHCVSVIPDKPSLNK, peptide start residue: 278)” the figure was -0.205; with “HTATSF1 (peptide sequence: TAEEPPQEKAPEPTDAR, peptide start residue: 96) (UniProt O43719)”, 0.191.
As for “AKR7A2 (peptide sequence: AAVHCALR, peptide start residue: 12) (UniProt O43488)”, the log2 fold change was 0.52.
The figure for “CNOT3 (peptide sequence: KKEGFTFEYR, peptide start residue: 736) (UniProt O75175)” is -0.444; for “PQBP1 (peptide sequence: GHDKSDRDR, peptide start residue: 134) (UniProt O60828)” it is -0.781.
